The results in this text go back to publication PMC8755797.

By UniProt entry, the sequences of proteins in these tests, tags left out. Where a name states a change or a piece, a line headed by the entry shows the natural chain unless it says otherwise. Residues count along the entry.
UniProt F4IDH5: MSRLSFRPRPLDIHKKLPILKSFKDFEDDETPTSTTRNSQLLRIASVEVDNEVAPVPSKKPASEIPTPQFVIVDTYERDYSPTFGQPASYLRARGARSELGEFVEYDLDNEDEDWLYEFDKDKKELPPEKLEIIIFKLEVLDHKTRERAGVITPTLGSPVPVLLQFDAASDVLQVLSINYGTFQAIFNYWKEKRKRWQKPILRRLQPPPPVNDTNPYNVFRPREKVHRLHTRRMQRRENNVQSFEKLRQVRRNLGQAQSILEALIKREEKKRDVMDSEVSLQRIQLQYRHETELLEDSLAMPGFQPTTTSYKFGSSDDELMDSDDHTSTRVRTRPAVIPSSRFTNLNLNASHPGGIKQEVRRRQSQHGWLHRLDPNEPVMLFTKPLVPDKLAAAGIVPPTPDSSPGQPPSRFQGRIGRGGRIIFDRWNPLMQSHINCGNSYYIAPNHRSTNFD
UniProt Q9LXD7: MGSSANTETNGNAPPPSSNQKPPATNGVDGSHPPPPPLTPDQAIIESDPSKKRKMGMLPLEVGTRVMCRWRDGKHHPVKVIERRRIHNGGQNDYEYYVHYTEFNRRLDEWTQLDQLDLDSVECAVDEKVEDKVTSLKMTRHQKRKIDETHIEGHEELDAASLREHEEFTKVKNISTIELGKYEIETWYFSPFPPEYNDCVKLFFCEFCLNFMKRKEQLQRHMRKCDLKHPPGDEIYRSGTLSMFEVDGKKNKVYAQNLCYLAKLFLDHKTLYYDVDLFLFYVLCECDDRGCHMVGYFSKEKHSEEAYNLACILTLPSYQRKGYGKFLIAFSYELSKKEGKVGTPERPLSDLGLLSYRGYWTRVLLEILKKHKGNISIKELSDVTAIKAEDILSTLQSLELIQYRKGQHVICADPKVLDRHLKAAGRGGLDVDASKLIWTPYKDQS
UniProt Q93YZ7, residues 62-491: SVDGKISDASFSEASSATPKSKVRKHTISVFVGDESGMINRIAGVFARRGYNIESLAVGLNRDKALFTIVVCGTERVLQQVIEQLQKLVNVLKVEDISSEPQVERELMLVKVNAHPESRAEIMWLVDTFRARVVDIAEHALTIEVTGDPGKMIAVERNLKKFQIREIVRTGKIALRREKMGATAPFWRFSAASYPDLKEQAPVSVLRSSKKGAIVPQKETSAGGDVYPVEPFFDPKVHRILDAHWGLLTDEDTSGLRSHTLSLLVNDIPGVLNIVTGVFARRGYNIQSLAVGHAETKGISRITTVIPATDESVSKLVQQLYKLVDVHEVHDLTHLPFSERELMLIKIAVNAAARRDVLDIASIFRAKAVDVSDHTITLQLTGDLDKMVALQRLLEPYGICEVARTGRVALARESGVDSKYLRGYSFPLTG
UniProt Q9FH40: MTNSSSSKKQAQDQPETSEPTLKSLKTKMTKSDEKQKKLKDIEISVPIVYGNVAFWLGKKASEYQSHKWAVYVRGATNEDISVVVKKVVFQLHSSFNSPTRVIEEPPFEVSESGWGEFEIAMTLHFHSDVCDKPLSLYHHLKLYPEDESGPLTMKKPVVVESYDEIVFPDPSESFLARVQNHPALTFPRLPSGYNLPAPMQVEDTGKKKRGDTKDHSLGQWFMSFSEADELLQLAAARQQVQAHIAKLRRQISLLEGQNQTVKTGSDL
UniProt F4J7T2: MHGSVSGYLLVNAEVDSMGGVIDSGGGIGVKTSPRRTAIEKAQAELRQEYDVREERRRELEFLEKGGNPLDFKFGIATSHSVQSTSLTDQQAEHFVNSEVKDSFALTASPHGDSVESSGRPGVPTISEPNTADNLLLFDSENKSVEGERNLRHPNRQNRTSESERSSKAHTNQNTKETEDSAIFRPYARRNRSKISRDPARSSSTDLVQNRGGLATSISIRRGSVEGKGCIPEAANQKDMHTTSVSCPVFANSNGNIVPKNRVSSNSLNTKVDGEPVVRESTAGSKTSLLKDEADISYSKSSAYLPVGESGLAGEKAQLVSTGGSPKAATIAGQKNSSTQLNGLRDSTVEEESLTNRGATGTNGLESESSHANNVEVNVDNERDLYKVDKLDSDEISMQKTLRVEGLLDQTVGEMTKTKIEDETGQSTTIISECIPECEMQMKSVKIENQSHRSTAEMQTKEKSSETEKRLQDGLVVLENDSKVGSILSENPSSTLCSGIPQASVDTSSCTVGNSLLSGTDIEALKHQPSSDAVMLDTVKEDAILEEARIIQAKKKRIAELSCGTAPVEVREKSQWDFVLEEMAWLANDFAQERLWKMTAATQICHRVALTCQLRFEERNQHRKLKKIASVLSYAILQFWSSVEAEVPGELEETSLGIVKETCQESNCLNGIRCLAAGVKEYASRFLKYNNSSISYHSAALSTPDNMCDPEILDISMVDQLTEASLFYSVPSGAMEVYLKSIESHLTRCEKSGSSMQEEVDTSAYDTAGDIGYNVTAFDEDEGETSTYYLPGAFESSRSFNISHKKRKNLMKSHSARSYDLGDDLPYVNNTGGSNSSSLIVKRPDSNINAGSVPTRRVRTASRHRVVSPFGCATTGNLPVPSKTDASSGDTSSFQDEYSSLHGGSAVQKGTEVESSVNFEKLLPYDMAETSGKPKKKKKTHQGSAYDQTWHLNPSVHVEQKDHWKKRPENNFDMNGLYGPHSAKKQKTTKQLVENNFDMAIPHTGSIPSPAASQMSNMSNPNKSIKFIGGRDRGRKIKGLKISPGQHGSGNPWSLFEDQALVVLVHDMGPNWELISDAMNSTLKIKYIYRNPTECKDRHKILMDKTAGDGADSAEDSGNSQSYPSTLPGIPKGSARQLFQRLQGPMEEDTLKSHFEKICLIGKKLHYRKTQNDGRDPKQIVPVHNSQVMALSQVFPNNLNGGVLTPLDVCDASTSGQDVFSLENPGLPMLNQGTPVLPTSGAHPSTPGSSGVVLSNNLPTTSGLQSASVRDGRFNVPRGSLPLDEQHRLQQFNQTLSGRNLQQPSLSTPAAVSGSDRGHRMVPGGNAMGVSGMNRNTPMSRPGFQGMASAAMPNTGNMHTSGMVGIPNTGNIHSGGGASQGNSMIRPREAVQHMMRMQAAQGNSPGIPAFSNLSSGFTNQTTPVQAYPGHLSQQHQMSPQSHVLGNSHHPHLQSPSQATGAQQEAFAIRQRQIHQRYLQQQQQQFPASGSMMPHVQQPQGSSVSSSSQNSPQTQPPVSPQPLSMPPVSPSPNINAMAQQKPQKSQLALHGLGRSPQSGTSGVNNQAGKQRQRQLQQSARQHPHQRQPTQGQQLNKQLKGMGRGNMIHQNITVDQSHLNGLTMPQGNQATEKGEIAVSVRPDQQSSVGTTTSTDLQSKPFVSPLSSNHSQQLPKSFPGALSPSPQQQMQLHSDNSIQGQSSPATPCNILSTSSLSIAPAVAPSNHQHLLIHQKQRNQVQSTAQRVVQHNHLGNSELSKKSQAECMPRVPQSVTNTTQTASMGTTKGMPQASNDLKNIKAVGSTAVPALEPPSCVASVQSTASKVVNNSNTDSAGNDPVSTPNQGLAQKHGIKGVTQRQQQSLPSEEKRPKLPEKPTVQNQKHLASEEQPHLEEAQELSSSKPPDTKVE
UniProt F4J7T3: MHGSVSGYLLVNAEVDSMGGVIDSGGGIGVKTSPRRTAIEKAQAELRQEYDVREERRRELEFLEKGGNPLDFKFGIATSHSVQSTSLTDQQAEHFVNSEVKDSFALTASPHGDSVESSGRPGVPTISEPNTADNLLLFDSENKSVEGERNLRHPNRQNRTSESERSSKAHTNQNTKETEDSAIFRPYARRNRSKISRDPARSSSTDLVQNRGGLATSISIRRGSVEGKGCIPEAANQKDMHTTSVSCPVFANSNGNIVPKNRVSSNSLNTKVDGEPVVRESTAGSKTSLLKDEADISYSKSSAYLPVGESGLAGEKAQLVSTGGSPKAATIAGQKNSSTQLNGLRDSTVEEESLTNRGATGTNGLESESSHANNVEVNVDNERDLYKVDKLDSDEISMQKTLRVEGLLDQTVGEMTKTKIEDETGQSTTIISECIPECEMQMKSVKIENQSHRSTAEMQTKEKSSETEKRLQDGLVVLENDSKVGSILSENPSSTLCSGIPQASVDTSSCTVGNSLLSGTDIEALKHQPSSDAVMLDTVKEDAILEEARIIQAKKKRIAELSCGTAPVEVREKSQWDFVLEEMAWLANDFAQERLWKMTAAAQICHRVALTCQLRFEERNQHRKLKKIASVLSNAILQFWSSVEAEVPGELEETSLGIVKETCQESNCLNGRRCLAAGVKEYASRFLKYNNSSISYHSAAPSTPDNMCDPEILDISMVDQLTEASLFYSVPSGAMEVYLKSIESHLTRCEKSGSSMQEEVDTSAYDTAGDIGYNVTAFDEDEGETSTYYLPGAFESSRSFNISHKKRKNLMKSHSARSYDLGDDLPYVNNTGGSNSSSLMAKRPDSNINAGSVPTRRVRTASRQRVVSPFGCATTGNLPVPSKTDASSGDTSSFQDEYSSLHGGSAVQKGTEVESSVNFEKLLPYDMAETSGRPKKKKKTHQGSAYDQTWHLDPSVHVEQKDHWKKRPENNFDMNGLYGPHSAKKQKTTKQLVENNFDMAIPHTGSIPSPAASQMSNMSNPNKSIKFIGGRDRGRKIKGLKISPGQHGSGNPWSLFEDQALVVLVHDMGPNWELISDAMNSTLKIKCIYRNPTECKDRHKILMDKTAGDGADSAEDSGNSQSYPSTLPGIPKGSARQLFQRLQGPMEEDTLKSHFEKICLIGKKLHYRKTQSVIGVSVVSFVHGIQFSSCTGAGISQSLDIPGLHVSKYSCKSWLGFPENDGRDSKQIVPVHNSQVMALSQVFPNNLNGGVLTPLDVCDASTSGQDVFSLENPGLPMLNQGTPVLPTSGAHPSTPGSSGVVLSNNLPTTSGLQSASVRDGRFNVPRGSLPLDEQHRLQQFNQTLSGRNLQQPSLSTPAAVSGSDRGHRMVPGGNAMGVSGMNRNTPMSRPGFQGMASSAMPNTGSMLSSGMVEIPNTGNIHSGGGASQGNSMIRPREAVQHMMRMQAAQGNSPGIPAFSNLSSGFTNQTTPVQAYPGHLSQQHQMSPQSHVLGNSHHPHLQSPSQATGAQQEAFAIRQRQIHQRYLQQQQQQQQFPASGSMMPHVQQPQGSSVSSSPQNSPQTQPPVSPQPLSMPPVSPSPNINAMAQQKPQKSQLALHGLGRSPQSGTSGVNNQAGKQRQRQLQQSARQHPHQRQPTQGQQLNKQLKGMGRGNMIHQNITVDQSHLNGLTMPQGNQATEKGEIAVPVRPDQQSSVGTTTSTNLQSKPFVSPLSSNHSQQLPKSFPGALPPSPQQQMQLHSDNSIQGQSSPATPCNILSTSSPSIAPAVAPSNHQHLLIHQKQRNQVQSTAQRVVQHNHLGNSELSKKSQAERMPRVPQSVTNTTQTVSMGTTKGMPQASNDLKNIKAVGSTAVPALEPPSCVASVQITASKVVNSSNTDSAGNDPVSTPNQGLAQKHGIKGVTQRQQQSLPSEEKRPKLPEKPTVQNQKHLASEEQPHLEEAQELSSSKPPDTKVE
UniProt F4JAM0: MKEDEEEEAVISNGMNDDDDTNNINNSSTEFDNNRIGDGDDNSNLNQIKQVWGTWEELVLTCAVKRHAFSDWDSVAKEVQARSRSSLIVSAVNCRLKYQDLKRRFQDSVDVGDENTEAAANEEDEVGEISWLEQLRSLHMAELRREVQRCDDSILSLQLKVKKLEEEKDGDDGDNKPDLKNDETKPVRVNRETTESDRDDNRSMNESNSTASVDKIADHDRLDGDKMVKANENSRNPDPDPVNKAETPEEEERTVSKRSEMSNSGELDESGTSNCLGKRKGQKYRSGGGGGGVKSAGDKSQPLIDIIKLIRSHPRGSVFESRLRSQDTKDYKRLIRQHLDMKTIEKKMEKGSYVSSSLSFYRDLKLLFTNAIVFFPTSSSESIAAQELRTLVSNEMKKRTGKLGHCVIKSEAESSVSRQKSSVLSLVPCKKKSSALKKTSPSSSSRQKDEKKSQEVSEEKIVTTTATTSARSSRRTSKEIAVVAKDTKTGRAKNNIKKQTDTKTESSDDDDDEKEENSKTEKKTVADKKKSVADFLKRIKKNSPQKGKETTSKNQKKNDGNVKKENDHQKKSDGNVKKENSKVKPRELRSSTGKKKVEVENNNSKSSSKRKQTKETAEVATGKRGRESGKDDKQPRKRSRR

These are yes or no findings as the source states them, for the method shown. In cells and extracts the contact can be indirect. Here binding means that the protein was enriched with, or labelled near, the bait; the list need not be complete.

B1: MRG1 (protein, UniProt Q94C32 1-320)
chain: MGSSSKEETASDGDTASGGASPSNDGRLFSEGERVLAYHGPRVYGAKVQKVELRKKEWKYFVHYLGWNKNWDEWVSADRLLKHTEENLVKQKALDKKQGVEKGTKSGRSAQTKTRSSADTKADKDDTKTNAAKGKKRKHESGNEKDNVTAEKLMKIQIPASLKKQLTDDWEYIAQKDKVVKLPRSPNVDEILSKYLEFKTKKDGMVTDSVAEILKGIRSYFDKALPVMLLYKKERRQYQESIVDDTSPSTVYGAEHLLRLFVKLPDLFSYVNMEEETWSRMQQTLSDFLKFIQKNQSTFLLPSAYDSDKVSDGKGKGKDD
B2: UGD1 (protein, UniProt Q9FZE1 1-481)
chain: MVKICCIGAGYVGGPTMAVMALKCPEIEVVVVDISEPRINAWNSDRLPIYEPGLEDVVKQCRGKNLFFSTDVEKHVFESDIVFVSVNTPTKTQGLGAGKAADLTYWESAARMIADVSKSSKIVVEKSTVPVRTAEAIEKILTHNSKGIEFQILSNPEFLAEGTAIKDLYNPDRVLIGGRDTAAGQKAIKALRDVYAHWVPVEQIICTNLWSAELSKLAANAFLAQRISSVNAMSALCEATGADVTQVAHAVGTDTRIGPKFLNASVGFGGSCFQKDILNLIYICECNGLPEAANYWKQVVKVNDYQKIRFANRVVSSMFNTVSGKKIAILGFAFKKDTGDTRETPAIDVCNRLVADKAKLSIYDPQVLEEQIRRDLSMARFDWDHPVPLQQIKAEGISEQVNVVSDAYEATKDAHGLCVLTEWDEFKSLDFKKIFDNMQKPAFVFDGRNVVDAVKLREIGFIVYSIGKPLDSWLKDMPAVA
B3: HAM1 (enzyme, UniProt Q9FLF7 1-445)
chain: MGSSADTETAMIIATPASNHNNPATNGGDANQNHTSGAILALTNSESDASKKRRMGVLPLEVGTRVMCQWRDGKYHPVKVIERRKNYNGGHNDYEYYVHYTEFNRRLDEWIKLEQLDLDSVECALDEKVEDKVTSLKMTRHQKRKIDETHVEGHEELDAASLREHEEFTKVKNIATIELGKYEIETWYFSPFPPEYNDCVKLFFCEFCLSFMKRKEQLQRHMRKCDLKHPPGDEIYRSSTLSMFEVDGKKNKVYAQNLCYLAKLFLDHKTLYYDVDLFLFYILCECDDRGCHMVGYFSKEKHSEEAYNLACILTLPPYQRKGYGKFLIAFSYELSKKEGKVGTPERPLSDLGLVSYRGYWTRILLDILKKHKGNISIKELSDMTAIKAEDILSTLQSLELIQYRKGQHVICADPKVLDRHLKAAGRGGLDVDVSKMIWTPYKEQS
B4: AtSWC4 (protein, UniProt Q8VZL6 1-441)
chain: MGGTDAKDILGLPKTPLSLTQEKKSRPQKESHRKPDGISREVYALTGGVAPLMPSIDLKRRPPADEKVAWKWLSFTNSARKDDLQLYHWVRVVNDVPPTGDYSFAKYNKSVDILKYTDEEYENHLTDSVWTKEETDQLFEFCQNFDLRFVVIADRFPVSRTVEELKDRYYSVNRALLRARAQSPADVANHPLMKEPYDITRDRERKRALSMVLSQSRHQEKKDAEILAEAKRITEMRLAARRAEEPDVSANENAGLDKADGVVPGRSVSPTSNSQLPATAVAPSTLTMADYASTLASLRMLHVYLRTYGLEQMVQAASSAVGLRTIKRVEQTLQDLGVNLKPKVPTKTVCDEHLELRKEILTLLNLQKQLQYKESEGSSHREGSYAAMPDTPKDRVFAPDPFSFGAERPIKKEQKRKGPGRQADTPSPAHKRPRKLKASDL
B5: AtARP4 (protein, UniProt Q84M92 1-441)
chain: MYGGDEVSAIVVDLGSHTCKAGYAGEDAPKAVFPSVIGAVDGVEAMDVDVDSTKTNSNSEDSKTESEKEKSKRKLYVGSQAMSYRRDHMEVLSPIKDGIVSDWDLVDNIWEHAFKSCLMIDPTEHPMLLAEPPLNTQQQREKAAELMFEKYKVPALFMAKNPVLTSFATGRATSLVVDCGGGSTTISPVHDGYVLQKAVVSSPLGGEFLTDCLLKSLESKGIKIRPRYSFKRKEVRAGEFQVEDVDIPDTTESYKLFCQRMIVGDIKDSICRVPDTPYDDKSYSNIPTTSYELPDGQTLEIGADRFKVPDVMFNPSIVQTIPGMEKYAEMIPSVRGLPHMVMESINKCDVDIRRELYSSILLAGGTSSMQQLKERLEKDLIEESPHSARVKVLASGNTTERRFSVWIGGSILASLGSFQQMWFSKSEYEEHGASYIQRKCP
B6: GATB (protein, UniProt Q9FV81 1-550)
chain: MSTTLLRTIQLNQFSLLGTSLLRRRRSNNFSVRSCGSQTTTTHEAKQSSPTRVAPKNHKSNQLDEILRDYEAVIGIETHVQLSTLTKAFCSCSNNYGSYPNTSICPVCMGLPGALPVLNSKVVEFGVRLGLALNCDLSLKSKFDRKQYFYPDLPKGYQISQFDIPIASGGYVDVDIPLEFGGGHRRFGITRVHMEEDAGKLLHSDTGDYSQVDLNRAGVPLLEIVSEPDMRSGIEAAEYACEMQRIARYLGVSNGNMQEGSLRCDVNISIRPIGQAEFGTKVEIKNLNAFSAISRAIDFEISRQALLYNQGKADQIVTETRLWEEGAQKTVTMRKKEGLADYRYFPEPDLPEVILTQEYVDSIRASLPELPEAKRRRYEAMGLGMQDVLFLANDVSVAEYFDAVIGKGAEVKLAANWIMSDIAAYLKNEKLSINDIKLTPQELAELIAAIKDGTISGKIGKEILFELLAKGGTVKGMIKAKDLVQITDPAEIEKMVIQVVSENPKQLEQYRSGKTKLQGYFAGQVMKMSKGKANPGLLNKILLEKLNAKD
B7: AtING2 (protein, UniProt B3H615 1-262)
chain: MAIARTGVYVDDYLEYASTFPAELQRLLNTVRELDERSQSLINQTRQQTKYCLGLASQSSKKGNGNHYNNGGLDEEETIEKMRKEIESSQENALSLCTEKVLLARQAYDLIDSHVKRLDEDLNNFAEDLKQEGKIPPDEPSVLPPLPIVPKAEKRKSFYGTPQPKKIDYRDRDWDRDRDFELMPPPGSNRKDLMPIEEQPIDPNEPTYCVCHQVSFGDMIACDNENCQGGEWFHYTCVGLTPETRFKGKWYCPTCRLLPQSH

This test has as its target AtEPL1B-TAP (A. thaliana) (UniProt F4IDH5). Description: affinity purification with mass spectrometry; tandem affinity purification via the C-terminal GSrhino tag of AtEPL1B from 50 g of 6-day-old hydroponically grown seedlings (Atepl1-1 with pAtEPL1B::AtEPL1B-TAP); on-bead digest, Q Exactive; two experiments.
On to “HAM2 (from UniProt Q9LXD7 1-445) (enzyme)”, for which the binding entry is recorded as “binds”.

In the case of AtTRA1A (from UniProt F4IPJ1), the binding result is on record as “binds”.

Consider AHASS1 (from UniProt Q93YZ7 62-491), for which the binding entry is listed as “binds”.

Consider AtYAF9A (from UniProt Q9FH40), for which the binding entry is “binds”.

With AtEAF1B (from UniProt F4J7T2 1-1907), the binding result was “binds”.

In the case of AtEAF1A (from UniProt F4J7T3 1-1957), the binding entry is recorded as “binds”.

Regarding BRD6 (from UniProt F4JAM0), the binding result is on record as “binds”.

Take B1: the binding entry is “binds”.

B2: the binding result is listed as “binds”.

Take B3: the binding entry is on record as “binds”.

Regarding B4, the binding result is recorded as “binds”.

On to B5, for which the binding result is “binds”.

With B6, the binding entry is reported as “binds”.

For B7, the binding entry was “binds”.
